Data taken from article PMC7033568.
These are yes or no findings as the source states them, for the method shown. In cells and extracts the contact can be indirect. Some entries that bind do so weakly or less than the wild type. Tags and fused reporters may be left off the sequences shown.

The chains behind the UniProt entries cited, without tags or fusion partners.
UniProt P27986: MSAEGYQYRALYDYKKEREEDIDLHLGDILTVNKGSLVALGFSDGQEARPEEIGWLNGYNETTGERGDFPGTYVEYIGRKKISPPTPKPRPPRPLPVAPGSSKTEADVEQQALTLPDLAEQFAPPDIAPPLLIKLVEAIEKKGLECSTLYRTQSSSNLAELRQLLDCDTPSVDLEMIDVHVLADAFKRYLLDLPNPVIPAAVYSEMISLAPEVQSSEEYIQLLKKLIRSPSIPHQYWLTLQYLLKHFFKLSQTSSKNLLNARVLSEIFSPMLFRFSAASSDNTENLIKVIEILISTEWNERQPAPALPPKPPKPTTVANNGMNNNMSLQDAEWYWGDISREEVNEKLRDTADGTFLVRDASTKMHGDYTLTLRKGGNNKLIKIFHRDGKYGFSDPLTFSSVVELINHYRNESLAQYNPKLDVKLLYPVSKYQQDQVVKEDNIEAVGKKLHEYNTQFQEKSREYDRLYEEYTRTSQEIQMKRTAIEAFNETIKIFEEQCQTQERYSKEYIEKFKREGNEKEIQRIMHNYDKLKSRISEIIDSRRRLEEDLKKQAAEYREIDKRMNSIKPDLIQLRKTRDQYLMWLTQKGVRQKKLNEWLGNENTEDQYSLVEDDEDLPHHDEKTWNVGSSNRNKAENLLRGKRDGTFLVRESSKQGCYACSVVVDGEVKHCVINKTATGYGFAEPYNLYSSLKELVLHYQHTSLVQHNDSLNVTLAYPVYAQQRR

Biological target: HA-PIK3R1 (UniProt P27986)
Experiment: co-IP; HEK293 cells co-transfected with Flag-LRRC4 and HA-PIK3R1; precipitated with control IgG, Flag or PIK3R1 antibodies, protein A magnetic beads, 4°C; immunoblot

B1: Flag-LRRC4 (Leucine-rich repeat-containing protein 4) (protein, UniProt Q9HBW1 39-653)
chain: ASAGPQNCPSVCSCSNQFSKVVCTRRGLSEVPQGIPSNTRYLNLMENNIQMIQADTFRHLHHLEVLQLGRNSIRQIEVGAFNGLASLNTLELFDNWLTVIPSGAFEYLSKLRELWLRNNPIESIPSYAFNRVPSLMRLDLGELKKLEYISEGAFEGLFNLKYLNLGMCNIKDMPNLTPLVGLEELEMSGNHFPEIRPGSFHGLSSLKKLWVMNSQVSLIERNAFDGLASLVELNLAHNNLSSLPHDLFTPLRYLVELHLHHNPWNCDCDILWLAWWLREYIPTNSTCCGRCHAPMHMRGRYLVEVDQASFQCSAPFIMDAPRDLNISEGRMAELKCRTPPMSSVKWLLPNGTVLSHASRHPRISVLNDGTLNFSHVLLSDTGVYTCMVTNVAGNSNASAYLNVSTAELNTSNYSFFTTVTVETTEISPEDTTRKYKPVPTTSTGYQPAYTTSTTVLIQTTRVPKQVAVPATDTTDKMQTSLDEVMKTTKIIIGCFVAVTLLAAAMLIVFYKLRKRHQQRSTVTAARTVEIIQVDEDIPAATSAAATAAPSGVSGEGAVVLPTIHDHINYNTYKPAHGAHWTENSLGNSLHPTVTTISEPYIIQTHTKDKVQETQI
  binding: binds
